Chains of the proteins cited; added tags and fusions are not shown.
UniProt Q9FV71: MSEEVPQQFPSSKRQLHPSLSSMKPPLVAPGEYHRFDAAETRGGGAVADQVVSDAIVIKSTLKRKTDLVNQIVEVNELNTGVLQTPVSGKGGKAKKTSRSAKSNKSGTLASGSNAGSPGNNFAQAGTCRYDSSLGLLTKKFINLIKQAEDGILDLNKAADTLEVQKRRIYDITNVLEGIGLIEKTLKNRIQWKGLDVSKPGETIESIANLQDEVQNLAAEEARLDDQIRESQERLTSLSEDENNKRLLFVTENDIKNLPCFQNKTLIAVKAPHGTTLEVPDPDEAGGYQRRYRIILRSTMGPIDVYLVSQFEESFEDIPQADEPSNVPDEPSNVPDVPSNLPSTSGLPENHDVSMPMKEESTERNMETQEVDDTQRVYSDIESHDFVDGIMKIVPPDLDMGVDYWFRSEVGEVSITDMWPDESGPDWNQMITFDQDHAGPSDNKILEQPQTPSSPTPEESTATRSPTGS

In publication PMC8500230:

How the values were obtained:
[1] = molecular target: T1, DPB-3xCFP (Arabidopsis thaliana), Q9FNY2; experiment: affinity purification with mass spectrometry; FP-IP: anti-GFP antibody on magnetic beads, total protein extracts (4 mg/IP) of Arabidopsis seedlings expressing the GFP- or CFP-tagged bait under its own promoter; GFP alone as control; standard conditions, various growth regimes (meta-analysis of 182 IPs), with or without 50 uM cisplatin for 24 h; label-free LC-MS/MS; settings: remark: other sources report otherwise
T1 chain: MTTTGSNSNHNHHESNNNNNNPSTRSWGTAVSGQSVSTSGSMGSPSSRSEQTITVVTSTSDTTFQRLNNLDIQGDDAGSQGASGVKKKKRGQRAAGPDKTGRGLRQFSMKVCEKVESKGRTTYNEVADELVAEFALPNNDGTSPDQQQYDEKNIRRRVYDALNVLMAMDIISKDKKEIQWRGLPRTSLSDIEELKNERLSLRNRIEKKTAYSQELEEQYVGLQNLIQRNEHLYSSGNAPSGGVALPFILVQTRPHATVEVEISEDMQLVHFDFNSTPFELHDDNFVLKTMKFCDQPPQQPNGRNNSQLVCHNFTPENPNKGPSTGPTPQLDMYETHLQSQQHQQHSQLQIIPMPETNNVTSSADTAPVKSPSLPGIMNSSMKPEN

[2] = molecular target: T2, RBR1-GFP (Arabidopsis thaliana) (UniProt Q9LKZ3); experiment: as above
T2 sequence: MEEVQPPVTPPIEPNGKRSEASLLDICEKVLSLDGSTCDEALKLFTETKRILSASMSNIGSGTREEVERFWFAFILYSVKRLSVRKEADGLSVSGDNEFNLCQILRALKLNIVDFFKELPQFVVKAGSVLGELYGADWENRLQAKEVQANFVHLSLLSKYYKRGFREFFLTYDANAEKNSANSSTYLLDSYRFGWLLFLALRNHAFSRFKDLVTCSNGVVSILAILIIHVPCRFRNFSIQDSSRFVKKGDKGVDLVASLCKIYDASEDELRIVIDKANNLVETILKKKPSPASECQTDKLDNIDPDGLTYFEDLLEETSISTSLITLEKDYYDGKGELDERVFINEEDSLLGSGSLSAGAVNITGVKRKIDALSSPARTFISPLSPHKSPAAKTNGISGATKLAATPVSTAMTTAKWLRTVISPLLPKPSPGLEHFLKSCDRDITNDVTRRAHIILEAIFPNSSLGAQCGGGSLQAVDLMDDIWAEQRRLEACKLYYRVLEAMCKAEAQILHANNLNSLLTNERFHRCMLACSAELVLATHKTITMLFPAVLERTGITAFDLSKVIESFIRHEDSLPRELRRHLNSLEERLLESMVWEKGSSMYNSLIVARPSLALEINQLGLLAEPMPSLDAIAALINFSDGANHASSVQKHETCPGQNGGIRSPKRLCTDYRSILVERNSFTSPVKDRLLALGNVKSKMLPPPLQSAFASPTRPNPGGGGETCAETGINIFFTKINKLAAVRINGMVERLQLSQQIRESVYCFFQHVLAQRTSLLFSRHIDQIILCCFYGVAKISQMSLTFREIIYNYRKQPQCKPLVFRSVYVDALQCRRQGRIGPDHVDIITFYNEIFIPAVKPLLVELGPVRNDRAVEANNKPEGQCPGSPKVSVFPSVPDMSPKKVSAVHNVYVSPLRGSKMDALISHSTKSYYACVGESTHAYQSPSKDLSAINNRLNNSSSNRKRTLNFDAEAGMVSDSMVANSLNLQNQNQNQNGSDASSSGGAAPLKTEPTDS

[3] = molecular target: T3, E2FC-GFP (Arabidopsis thaliana) (UniProt Q9FV70); experiment: as above
T3 sequence: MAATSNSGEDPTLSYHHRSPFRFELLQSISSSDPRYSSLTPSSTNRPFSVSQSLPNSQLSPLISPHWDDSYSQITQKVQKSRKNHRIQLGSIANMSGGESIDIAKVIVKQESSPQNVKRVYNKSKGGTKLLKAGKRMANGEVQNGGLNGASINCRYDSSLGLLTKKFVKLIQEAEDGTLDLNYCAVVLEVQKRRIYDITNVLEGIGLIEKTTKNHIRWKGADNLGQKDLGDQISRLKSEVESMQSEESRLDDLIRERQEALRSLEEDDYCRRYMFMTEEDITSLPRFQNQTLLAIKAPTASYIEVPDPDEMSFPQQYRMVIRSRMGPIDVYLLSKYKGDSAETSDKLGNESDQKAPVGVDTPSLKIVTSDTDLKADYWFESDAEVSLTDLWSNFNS

[4] = molecular target: E2FB-GFP (Arabidopsis thaliana) (UniProt Q9FV71); experiment: as above
[5] = molecular target: T4, DPB-3xCFP (Arabidopsis thaliana) (UniProt Q9FNY2); experiment: as above
T4 sequence: T1 chain

[6] = molecular target: N-terminally tagged RBR1 (TAP bait) (Arabidopsis thaliana) (UniProt Q9LKZ3); experiment: affinity purification with mass spectrometry; tandem affinity purification (GS^rhino tag) from Arabidopsis PSB-D cell suspension cultures expressing the tagged bait under the 35S promoter; 30 uM cisplatin added 16 h before harvest; 100 mg total protein extract; on-bead digest, LC-MS/MS; in …
[7] = molecular target: T5, C-terminally tagged TCX5 (TAP bait) (Arabidopsis thaliana) (UniProt Q9SZD1); experiment: as above
T5 sequence: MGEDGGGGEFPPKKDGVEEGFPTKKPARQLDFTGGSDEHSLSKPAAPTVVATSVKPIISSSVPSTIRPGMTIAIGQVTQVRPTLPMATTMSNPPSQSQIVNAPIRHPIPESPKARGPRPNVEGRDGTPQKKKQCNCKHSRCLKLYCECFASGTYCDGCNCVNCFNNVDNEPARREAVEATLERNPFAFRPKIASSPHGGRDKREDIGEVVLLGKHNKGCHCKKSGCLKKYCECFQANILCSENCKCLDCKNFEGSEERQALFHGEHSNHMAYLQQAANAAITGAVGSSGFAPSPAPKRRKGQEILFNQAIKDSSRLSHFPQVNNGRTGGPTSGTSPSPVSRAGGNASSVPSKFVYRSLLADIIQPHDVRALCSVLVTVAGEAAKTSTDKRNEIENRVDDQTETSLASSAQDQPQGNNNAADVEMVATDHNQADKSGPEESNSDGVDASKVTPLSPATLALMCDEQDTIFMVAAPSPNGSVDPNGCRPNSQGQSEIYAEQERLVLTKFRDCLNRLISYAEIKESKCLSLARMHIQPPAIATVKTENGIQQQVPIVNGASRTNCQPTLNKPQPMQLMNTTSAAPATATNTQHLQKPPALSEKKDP

[8] = molecular target: T6, N-terminally tagged TCX5 (TAP bait) (Arabidopsis thaliana) (UniProt Q9SZD1); experiment: as above
T6 sequence: T5 sequence

binding [1]: binds
B1: RETINOBLASTOMA-RELATED 1 (RBR1), Q9LKZ3 1-1013 (protein)
chain: T2 sequence

binding [2]: binds
binding [3]: binds
binding [4]: binds
binding [5]: binds
binding [6]: binds
binding [7]: binds
binding [8]: binds
B2: ALY1 (protein, UniProt Q6A331 1-971)
chain: MAPTRKSKSVNKRFTNEASPDINFGSASKTKQRKKKLADKLGPQWTKRELVRFYDAYRKYVGDWKKVAAAVRNNRSVEMVETLFCMNRAYLSLPEGTASVAGLIAMMTDHYSVMEGSESEGEDHDASEVTRKHLKRKRPQVLPSDFREEVVPPHSVASVEGCLSFLKQTQAYEKRQRATGKRTPRFLVAITHERDDIEDFSPPNKRAKKQLDADDDASRRGGGSPYRRKELSEITPTRLRKTSQAQEAQFKHPDSSMFENGVRDRWHKKGAADRDGALLMDMEGLVTQKEKIVRVEEAEGNYSDDDDGLGALKTLAEMSASLAPAGLLESESSPHWEEERKTNNVDKKSNTLETVSTSHHREKAKQAGLEDNLLHAISAPDKRKPKSVPESVDGNVVSIEELRTSSRKRKPKFQVLDVVAPKESTQDKSLYTKESAEVDSLKTPVKARRSSQGPAKQLKTAKTTVESSSASDKKITGPDAVVPATQVSASGPETLPQKPPNRRKISLKKSLQERAKSLETTHDKPRSFKKLSEHELLQEKLSNCLSYPLVRRWCIYEWFYSAIDYPWFAKMEFTDYLNHVGLGHAPRLTRVEWSVIKSSLGRPRRLSQRFLQDERDKLQEYRESVRKHYTELRGCATGVLHTDLARPLSVGNRVIAIHPKTREIRDGKILTVDHNKCNVLFDELGVELVMDIDCMPLNPLEYMPEGLRRQIDKCLAICKEARLNRHPSSDASVLFSPSVLENVNFSMNPPPAKQDDIREPVLYGKVIATNTTDQSIVINSKVTGTEIQRTLALQHTSDAQEMEPEMIEIVIESKSIAQAMVDAAIKAASSGKNNEDSENMVHQALSSIGEHQPLDNSIVPGIKHQEYTNGSLDHHSLNTAEPMSNGFISQEGSGKNKTPMPSELITSCVASWLMMQMISKKQYPPADVAQLMDTVVNDLQPRCPQNMPIYREIQTCMGLIKTQIMALVRTS

These are yes or no findings as the source states them, for the method shown. In cells and extracts the contact can be indirect. A yes stands for co-enrichment or nearness to the bait. Other partners may have been found. For some assays here: Sequences can lack the tags named with a protein. Each block holds one binder with its values, some of them ahead of it.
